We go through 1 compound from patent US20260137819A1 (Radionetics Oncology, Inc., priority 2022, published 2026).

Protein sequences, listed by entry. Tags and fused reporters are not part of them. Residues count along the entry.
UniProt P23945, 18-695 limits assumed: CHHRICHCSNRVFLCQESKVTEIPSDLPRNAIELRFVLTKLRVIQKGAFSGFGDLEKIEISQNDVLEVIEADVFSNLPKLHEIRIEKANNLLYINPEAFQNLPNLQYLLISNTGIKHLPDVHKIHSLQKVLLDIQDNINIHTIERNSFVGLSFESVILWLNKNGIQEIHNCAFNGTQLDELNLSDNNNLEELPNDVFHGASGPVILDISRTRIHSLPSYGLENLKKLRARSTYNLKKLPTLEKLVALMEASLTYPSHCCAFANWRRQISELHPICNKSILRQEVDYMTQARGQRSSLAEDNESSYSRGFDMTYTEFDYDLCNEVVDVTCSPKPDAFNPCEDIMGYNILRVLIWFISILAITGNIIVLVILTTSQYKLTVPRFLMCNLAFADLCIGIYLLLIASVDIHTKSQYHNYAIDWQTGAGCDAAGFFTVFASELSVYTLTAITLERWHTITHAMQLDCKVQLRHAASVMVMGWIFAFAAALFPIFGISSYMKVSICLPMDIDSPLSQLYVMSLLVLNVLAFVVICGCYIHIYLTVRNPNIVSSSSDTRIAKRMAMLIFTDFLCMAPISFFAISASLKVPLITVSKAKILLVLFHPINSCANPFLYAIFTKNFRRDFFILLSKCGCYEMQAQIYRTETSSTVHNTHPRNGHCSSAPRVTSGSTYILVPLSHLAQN

What is called EC50 is the concentration needed to bring the measured effect to its halfway point.

The assay concerns the target human follicle-stimulating hormone receptor (FSHR) (Homo sapiens, UniProt P23945). The experiment in a line: Measurement of agonist cAMP production by activation of human FSHR. As to conditions: read-out: hFSHR Agonist cAMP EC50; CHO-K1 human FSHR cells, 30 minutes at 37° C., HTRF cAMP kit. (Cyclic AMP is a second messenger, typically raised through Gs and lowered through Gi signalling.)

The match of structure and compound is tentative.

In the case of `COc1cc2c(cc1-c1cccc(NC(=O)CCC(=O)NCCCC[C@@H](NC(=O)[C@@H](C)NC(=O)[C@@H](CCC(=O)O)NC(=O)[C@@H](C)NC(=O)[C@@H](CCC(=O)O)NC(=O)[C@@H](C)NC(=O)CN3CCN(CC(=O)O)CCN(CC(=O)O)CCN(CC(=O)O)CC3)C(=O)N[C@H](C)C(N)=O)c1)-c1c(c(C(=O)N3CCOCC3(C)C)nn1-c1cc(Cl)cc(Cl)c1)CO2` [Compound 95], the concentration giving a half-maximal response (EC50) fell in the range of 10 to 100 nM.
